Measurements from article doi:10.1101/333435.
No constants are given. Whether binding was seen depends on the method and setting. In cells and extracts the contact can be indirect. Some entries that bind do so weakly or less than the wild type.

Chains of the proteins cited; added tags and fusions are not shown. Residues count along the entry.
UniProt Q9H6L5: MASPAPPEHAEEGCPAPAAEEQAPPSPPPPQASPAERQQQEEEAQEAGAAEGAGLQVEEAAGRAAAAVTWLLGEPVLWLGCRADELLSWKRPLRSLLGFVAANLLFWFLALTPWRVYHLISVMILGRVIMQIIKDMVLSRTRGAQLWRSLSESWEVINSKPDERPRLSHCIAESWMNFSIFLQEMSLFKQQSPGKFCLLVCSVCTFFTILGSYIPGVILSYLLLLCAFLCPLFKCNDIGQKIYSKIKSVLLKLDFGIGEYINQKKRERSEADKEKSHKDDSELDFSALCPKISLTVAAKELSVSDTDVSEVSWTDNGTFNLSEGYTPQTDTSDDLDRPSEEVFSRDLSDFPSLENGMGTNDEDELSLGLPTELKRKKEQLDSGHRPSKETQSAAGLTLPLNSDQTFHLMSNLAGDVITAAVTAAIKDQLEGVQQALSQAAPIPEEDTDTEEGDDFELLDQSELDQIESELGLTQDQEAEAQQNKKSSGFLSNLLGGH
UniProt P59826, residues 17-472: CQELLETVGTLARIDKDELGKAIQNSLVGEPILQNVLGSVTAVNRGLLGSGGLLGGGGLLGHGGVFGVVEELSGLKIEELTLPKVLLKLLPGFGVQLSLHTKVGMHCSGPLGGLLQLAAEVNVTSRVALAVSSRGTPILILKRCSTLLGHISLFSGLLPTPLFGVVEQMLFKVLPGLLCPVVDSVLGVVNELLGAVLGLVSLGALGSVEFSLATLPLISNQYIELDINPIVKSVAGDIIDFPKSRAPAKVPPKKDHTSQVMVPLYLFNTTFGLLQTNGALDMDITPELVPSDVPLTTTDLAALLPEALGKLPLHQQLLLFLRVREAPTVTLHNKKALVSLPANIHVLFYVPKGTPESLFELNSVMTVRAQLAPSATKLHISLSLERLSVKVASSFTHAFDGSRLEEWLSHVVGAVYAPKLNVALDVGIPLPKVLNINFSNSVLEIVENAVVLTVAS

Biological target: RETREG1 GFP1-10 (UniProt Q9H6L5)
Test: split reporter

BPIFB3 GFP11 (from UniProt P59826 17-472)
binding: binds
